Data published in PubChem BioAssay AID540276 (National Center for Advancing Translational Sciences (NCATS), 2011).
The campaign covered roughly 300,000 compounds. About 5,400 (1.8%) were called active. Inconclusive results, whose numbers are uncertain, are shown with a selection of clear calls. Calls come from the whole dose curve; tested in HEK293 cells. Potencies of inconclusive entries are doubtful fits and often do not repeat.

Experiment: qHTS for inhibitors of binding or entry into cells for Marburg Virus
Settings: Marburg virus pseudotyped entry inhibition, cell reporter; series mostly up to 37.8 µM
Potency is the fitted concentration of half-maximal effect.

| Structure (SMILES) | Potency |
| --- | --- |
| O=C(NCc1ccco1)C1CCCN(S(=O)(=O)c2ccc(-n3cnnn3)cc2)C1 (stereo not drawn) | inactive |
| CCOC(=O)c1c(C)nc(C)c(C(=O)OCC)c1-c1ccc(O)c(OC)c1 | inconclusive: 25.1 µM [inhibitor, single point] |
| CCOC(=O)c1nn(-c2ccccc2)c(=O)cc1SC1CCCCC1 | inactive |
| CC1(C)CC(=O)C(N=Nc2cc(Cl)c(Cl)c(Cl)c2)=C(O)C1 | inactive |
| Cc1ccc2ncc(C(=O)N3CCN(c4ccccc4F)CC3)c(=O)n2c1 | inactive |
| COc1ccc(N2CCN(c3ncnc4scc(-c5ccc(F)cc5)c34)CC2)cc1 | inconclusive: 31.6 µM [inhibitor, single point] |
| CCOC(=O)N1CCc2c(sc3c2c(=O)n(Cc2ccccc2)c(=O)n3Cc2ccccc2Cl)C1 | inactive |
| O=C(O)Cc1nn(Cc2ccc(Cl)cc2)c(=O)c2ccccc12 | inconclusive: 6.31 µM [activator, single point] |
| N#CCCn1cc(/C=N/O)c(-c2cccc([N+](=O)[O-])c2)n1 | inconclusive: 31.6 µM [activator, single point] |
| COc1ccccc1N1CCN(C(=O)Nc2ccc([N+](=O)[O-])cc2)CC1 | inconclusive: 3.55 µM [inhibitor, partial curve, poor fit] |
| O=C(Nc1cccc(Cl)c1)c1cccnn1 | inconclusive: 35.5 µM [activator, single point] |
| O=[N+]([O-])c1ccccc1N=NNc1ccccc1 | inconclusive: 11.2 µM [activator, partial curve] |
| O=C(CSc1ncn[nH]1)c1cccc([N+](=O)[O-])c1 | inconclusive: 0.562 µM [activator, full curve, poor fit] |
| CCOC(=O)c1cc(C)[nH]c(=S)c1C#N | inconclusive: 1.58 µM [activator, partial curve] |
| COC(=O)[C@H](Cc1ccccc1)NC(=O)NCc1ccc(C)cc1 | inconclusive: 11.2 µM [inhibitor, partial curve, poor fit] |
| COCC(C)n1c(C)cc(C(=O)CSc2nnnn2-c2ccc(O)cc2)c1C (stereo not drawn) | inconclusive: 22.4 µM [activator, single point] |
| CC(C)(C)c1ccc(CNc2cc(N3CCOCC3)ccc2[N+](=O)[O-])cc1 | inconclusive: 35.5 µM [inhibitor, single point] |
| COc1ccccc1NS(=O)(=O)c1cccc(C(=O)N/N=C/c2ccc([N+](=O)[O-])o2)c1 | inconclusive: 10 µM [inhibitor, partial curve] |
| CCC1CCCCN1C(=O)CSc1nnc(-c2ccc3c(c2)OCCO3)o1 (stereo not drawn) | inconclusive: 3.55 µM [inhibitor, single point] |
| O=c1c2c(nc3c(-c4ccccc4)c[nH]n13)CCC2 | inactive |
| COc1ccc(C2C(C#N)=C(N)N(Nc3ccccc3)C3=C2C(=O)CC(C)(C)C3)cc1C (stereo not drawn) | inconclusive: 35.5 µM [inhibitor, single point] |
| COc1ccc(CC(=O)Nc2ccc(-c3noc(-c4ccccc4OC)n3)cc2)cc1 | inconclusive: 4.61 µM [inhibitor, partial curve] |

| Structure (SMILES) | Potency |
| --- | --- |
| CCN(Cc1ccc2c(c1)OCO2)C(=O)/C=C/c1cccc(Br)c1 | inconclusive: 3.16 µM [inhibitor, partial curve, poor fit] |
| O=C(C[n+]1ccc(C(=O)NCc2ccccc2)cc1)c1ccc(OC(F)F)cc1 | inactive |
| O=C(NCc1ccncc1)C(=O)NCC(c1ccco1)N1CCN(c2ccccc2F)CC1 (stereo not drawn) | inactive |
| Cc1cc(Cl)c2ccc3ccccc3c2n1 | inactive |
| CCc1c(C)sc(NC(=S)Nc2nc(C)cc(C)n2)c1C(=O)OC | inconclusive: 1.26 µM [inhibitor, partial curve, poor fit] |
| O=C1CCCCC1Sc1nnc(Nc2ccccc2)s1 (stereo not drawn) | inconclusive: 7.08 µM [activator, full curve, poor fit] |
| Cc1ccc(C(=O)Nc2nc(COc3ccccc3)cs2)s1 | inactive |
| COc1ccccc1CNC(=O)CN1CCN(S(=O)(=O)c2cccs2)CC1 | inactive |
| CCCCNC(=O)c1ccc(NS(=O)(=O)c2ccc3[nH]c(=O)[nH]c3c2)cc1 | inactive |
| COc1ccc(C(=O)O/N=C(\N)Cc2ccc([N+](=O)[O-])cc2)c(OC)c1 | inconclusive: 35.5 µM [inhibitor, single point] |
| COCCCNC(=O)c1cn(CCOC)c(=O)c2c1c1ccccc1n2C | inconclusive: 3.55 µM [activator, full curve, poor fit] |
| CCN(CC)S(=O)(=O)c1ccc2c(c1)C(=NO)c1cc(S(=O)(=O)N(CC)CC)ccc1-2 | inconclusive: 3.55 µM [inhibitor, partial curve, poor fit] |
| Cc1oc(-c2cc(F)ccc2F)nc1CN(C)Cc1ccc2nccnc2c1 | inactive |
| Cc1ccc2nc(-c3ccc(NS(=O)(=O)c4ccc(F)c(F)c4)cc3)sc2c1 | inconclusive: 5.01 µM [activator, single point] |
| O=C(C[n+]1ccc(C(=O)N/N=C/c2ccc(Br)cc2)cc1)c1ccccc1 | inconclusive: 3.55 µM [inhibitor, single point] |
| Cc1nc([N+](=O)[O-])c(C(=O)OCc2ccccc2)n1C | inactive |
| COc1ccc(NC(=O)Cn2c(=O)n(Cc3ccco3)c(=O)c3ccccc32)cc1 | inconclusive: 16.4 µM [inhibitor, partial curve, poor fit] |
| COc1ccccc1C(=O)NC(=S)Nc1ccc2[nH]c(=O)[nH]c2c1 | inconclusive: 35.5 µM [inhibitor, single point] |
| Cn1cc(C(=O)OCC2CCN(CCNS(C)(=O)=O)CC2)c2ccccc21 | inconclusive: 0.02 µM [inhibitor, full curve, poor fit] |
| O=C1c2ccccc2-c2c1c1ccccc1c(=O)n2CCO | inconclusive: 10 µM [inhibitor, partial curve, poor fit] |
| COc1ccc(OC)c(NC(=O)C2CCN(S(=O)(=O)c3ccc4c(c3)OCCO4)CC2)c1 | inconclusive: 6.31 µM [inhibitor, single point] |

Fetched by compound from the list above, two records:

| Structure (SMILES) | Potency |
| --- | --- |
| Cc1oc(-c2cc(F)ccc2F)nc1CN(C)Cc1ccc2nccnc2c1 | inactive |
| CCN(Cc1ccc2c(c1)OCO2)C(=O)/C=C/c1cccc(Br)c1 | inconclusive: 3.16 µM [inhibitor, partial curve, poor fit] |
